Source: article PMC3355086
For at least one entry, the source does not settle the construct or the ends of the probe. A weaker result is weaker than the reference pair of the same experiment.

The chains behind the UniProt entries cited, without tags or fusion partners. Where a name states a change or a piece, a line headed by the entry shows the natural chain unless it says otherwise.
UniProt Q9Y5J3: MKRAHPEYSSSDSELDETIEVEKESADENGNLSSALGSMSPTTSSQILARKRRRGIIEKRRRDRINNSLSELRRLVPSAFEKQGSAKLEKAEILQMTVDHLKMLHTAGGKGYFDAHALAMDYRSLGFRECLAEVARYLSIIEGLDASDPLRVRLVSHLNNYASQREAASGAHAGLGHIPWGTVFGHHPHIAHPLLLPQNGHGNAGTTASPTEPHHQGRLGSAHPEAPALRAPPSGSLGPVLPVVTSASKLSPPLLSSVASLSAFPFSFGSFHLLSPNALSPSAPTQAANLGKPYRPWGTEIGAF

Assays:
MBP-HEY1 [1] = target: MBP-HEY1 (UniProt Q9Y5J3); experiment: competition with a labelled probe; conditions: 5-, 15-, 50-fold excess, 20 mM Tris pH 7.6, 100 mM KCl, 0.5 mM EDTA, 0.1% Nonidet P-40, 1 mM MgCl2, 1 mM DTT, 1 ng MBP-HEY1, 1 ug poly-dAdT, 5 ng probe in 10 ul, 30 min on ice, recombinant protein, protein details: MBP
MBP-HEY1 [2] = target: MBP-HEY1 (UniProt Q9Y5J3); experiment: EMSA; conditions: 20 mM Tris pH 7.6, 100 mM KCl, 0.5 mM EDTA, 0.1% Nonidet P-40, 1 mM MgCl2, 1 mM DTT, 10% glycerol, 1 ng MBP-HEY1, 1 ug poly-dAdT, 5 ng probe in 10 ul, 30 min on ice, recombinant protein, protein details: MBP
[3] = own binding easily competed by excess CACGTG

Sequence	binding result (MBP-HEY1 [1]; unlabeled competitor vs biotin-CACGTG, much poorer competitor, 10% glycerol)	binding result (MBP-HEY1 [2]; [3])	binding result (MBP-HEY1 [1]; unlabeled competitor vs biotin-CACGTG, least effective, 10% glycerol)	binding result (MBP-HEY1 [1]; unlabeled self competitor, efficient, 10% …)	binding result (MBP-HEY1 [2]; 1 mM Mg2+, poly-dAdT)
GTGTTATGGCACGCGCCATACTG / GCAGTATGGCGCGTGCCATAACA [ChIP-Ebox CACGCG]	binds more weakly	binds more weakly			
GTGTTATGGCGCGCGCCATACTG / GCAGTATGGCGCGCGCCATAACA [ChIP-Ebox CGCGCG]		binds more weakly	binds more weakly		
GTGTTATGGCACGTGCCATACTG / GCAGTATGGCACGTGCCATAACA [ChIP-Ebox CACGTG]				binds	binds
